Values of other authors in US10172824B2, “Crystal forms of scutellarin aglycone and preparation thereof” (YUNNAN INSTITUTE OF MATERIA MEDICA, priority 2014, dated 2019).
At least one read-out could not be matched to a standard name with certainty.

Conditions: rats, intragastric, equal amount, relative to scutellarin; cited from earlier work

O=c1cc(-c2ccc(O)cc2)oc2cc(O)c(O)c(O)c12 [scutellarin aglycone, 5,6,7-trihydroxy-2-(4-hydroxyphenyl)-4H-benzopyran-4-one]
relative bioavailability: 301.8%
